Values of other authors in patent US20150344404A1, “PDK4 INHIBITOR AND USE THEREOF” (THE KITASATO INSTITUE, priority 2012, published 2015).

System: PDK
Settings: cited from earlier work

Q: With CN[C@@H]1C[C@H]2O[C@@](C)([C@@H]1OC)n1c3ccccc3c3c4c(c5c6ccccc6n2c5c31)C(=O)NC4 [staurosporine] as the compound, how does the “inhibition of PDK” value read?
A: not inhibited totally
